Patent US20180355030A1
Results are given in words; binding and its absence hold for the method and conditions named. Some binding calls cover weakened binding; strength is not graded here.

Protein sequences, listed by entry. Tags and fused reporters are not part of them. Residues count along the entry.
UniProt P24055, residues 33-292: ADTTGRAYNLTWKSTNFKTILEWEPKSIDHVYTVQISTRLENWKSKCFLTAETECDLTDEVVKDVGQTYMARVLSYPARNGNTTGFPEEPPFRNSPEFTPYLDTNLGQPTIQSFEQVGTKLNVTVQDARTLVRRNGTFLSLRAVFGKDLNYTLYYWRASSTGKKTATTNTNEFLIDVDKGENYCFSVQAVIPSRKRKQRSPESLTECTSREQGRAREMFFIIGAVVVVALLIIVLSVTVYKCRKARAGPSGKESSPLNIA
UniProt P08709, residues 61-466: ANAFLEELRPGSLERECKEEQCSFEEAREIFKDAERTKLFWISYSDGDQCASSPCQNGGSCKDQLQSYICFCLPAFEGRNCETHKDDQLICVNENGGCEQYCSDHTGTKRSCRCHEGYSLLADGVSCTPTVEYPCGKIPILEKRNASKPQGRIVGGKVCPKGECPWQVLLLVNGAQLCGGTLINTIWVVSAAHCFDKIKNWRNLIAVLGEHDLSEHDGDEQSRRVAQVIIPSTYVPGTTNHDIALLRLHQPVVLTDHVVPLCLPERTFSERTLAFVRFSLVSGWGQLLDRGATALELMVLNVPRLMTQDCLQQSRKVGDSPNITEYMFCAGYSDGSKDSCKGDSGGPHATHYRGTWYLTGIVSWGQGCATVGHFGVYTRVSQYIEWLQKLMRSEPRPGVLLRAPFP

Molecular target: Lipidated rabbit tissue factor (rTF; American Diagnostica, Product #4520L) (rabbit) (UniProt P24055)
Assay: SPR, Biacore

For “Human FVIIa; Lot # A09050525 (Fitzgerald) (from UniProt P08709 61-466) (enzyme)”, the binding was “binds”.
